The results in this text go back to article PMC11843152.

Protein sequences, listed by entry. Tags and fused reporters are not part of them.
UniProt Q01094: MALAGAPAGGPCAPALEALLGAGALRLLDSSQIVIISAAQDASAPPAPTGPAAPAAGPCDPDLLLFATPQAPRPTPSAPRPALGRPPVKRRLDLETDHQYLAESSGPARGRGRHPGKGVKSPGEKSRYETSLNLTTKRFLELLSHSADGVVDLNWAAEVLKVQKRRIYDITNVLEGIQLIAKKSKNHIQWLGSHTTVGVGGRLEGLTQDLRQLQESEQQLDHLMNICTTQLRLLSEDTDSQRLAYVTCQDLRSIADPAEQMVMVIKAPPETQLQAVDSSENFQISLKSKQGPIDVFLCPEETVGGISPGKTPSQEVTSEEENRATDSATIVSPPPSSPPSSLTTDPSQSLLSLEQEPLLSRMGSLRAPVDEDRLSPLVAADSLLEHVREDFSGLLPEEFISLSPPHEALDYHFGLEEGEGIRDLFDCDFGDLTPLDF
UniProt Q15003: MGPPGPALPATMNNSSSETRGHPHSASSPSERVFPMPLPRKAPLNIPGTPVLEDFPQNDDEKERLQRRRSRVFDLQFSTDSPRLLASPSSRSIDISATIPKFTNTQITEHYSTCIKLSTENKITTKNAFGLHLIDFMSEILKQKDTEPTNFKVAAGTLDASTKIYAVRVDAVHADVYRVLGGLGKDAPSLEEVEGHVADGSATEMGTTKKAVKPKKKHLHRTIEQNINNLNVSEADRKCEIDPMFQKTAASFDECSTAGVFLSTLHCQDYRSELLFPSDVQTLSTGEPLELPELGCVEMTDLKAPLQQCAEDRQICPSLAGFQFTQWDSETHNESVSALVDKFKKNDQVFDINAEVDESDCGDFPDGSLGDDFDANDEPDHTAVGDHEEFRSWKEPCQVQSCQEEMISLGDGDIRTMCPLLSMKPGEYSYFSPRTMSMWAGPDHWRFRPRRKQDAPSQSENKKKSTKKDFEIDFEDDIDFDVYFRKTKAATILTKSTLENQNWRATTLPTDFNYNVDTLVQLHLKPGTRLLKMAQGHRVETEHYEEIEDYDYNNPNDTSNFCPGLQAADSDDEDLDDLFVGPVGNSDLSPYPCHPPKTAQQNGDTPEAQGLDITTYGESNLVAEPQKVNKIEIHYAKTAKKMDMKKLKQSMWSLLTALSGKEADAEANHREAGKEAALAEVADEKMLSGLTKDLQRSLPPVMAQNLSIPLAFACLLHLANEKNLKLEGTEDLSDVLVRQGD

These are yes or no findings as the source states them, for the method shown. In cells and extracts the contact can be indirect. Some results given as binding are weak or reduced against the parent protein; the word gives no strength.

The target of this test is E2F1 (transcription factor E2F1) (human (endogenous in LNCaP and PC3)) (UniProt Q01094). In words: co-IP; endogenous proteins in LNCaP and PC3 cell lysates (Cell Lysis Buffer #9803); anti-NCAPH or anti-E2F1 antibody overnight at 4 °C, Protein A + G Agarose; rabbit IgG as negative control.

Consider “NCAPH (non-SMC condensin I complex subunit H) (from UniProt Q15003 1-741)”, for which the binding result was “binds”.
